{"source": "patent US12383551B2", "about": "“Methods and compositions for maintaining opioid efficacy in the treatment of pain” (East Carolina University, priority 2017, dated 2025)", "key": {"SCI animals": {"tested_on": "SCI animals", "assay": "Mechanical pain thresholds / analgesia in animals with spinal cord injury (contusion model)", "format": "in vivo, Long-Evans rats", "conditions": "0.1 mg/kg drug combined with 2.5 mg/kg morphine", "experimental": "(§1) Methods: 55 female, Long-Evans rats were tested for mechanical thresholds prior to receiving a spinal contusion (SCI) or sham surgery. Mechanical pain thresholds were measured 21-27 days post-surgery under the following conditions: Morphine alone (1.0 or 2.5 mg/kg); Morphine (1.0 or 2.5 mg/kg)+0.1 mg/kg Pramipexole (PRAM; D3R agonist); Morphine (2.5 mg/kg)+0.1 mg/kg SCH23390 (SCH: D1R antagonist); 0.1 mg/kg Pramipexole alone; 0.1 mg/kg SCH23390 alone. Conditioned Place Preference (CPP) to each drug combination was assessed to determine the addictive potential of that specific combination.\n(§2) Mechanical thresholds were assessed in 3-5 month old female Long-Evans rats before and ˜21 days after a mild, traumatic SCI (contusion model). Thresholds were re-assessed after i.p. injection of: Morphine 1.0 mg/kg with and without 0.1 mg/kg pramipexole (PRAM) or Morphine 2.5 mg/kg with and without 0.1 mg/kg PRAM. Conditioned place preference was performed under each drug condition (5 days alternating drug/vehicle pairing, with testing on day 6). Western blotting determined expression of D3R, D1R and u-opioid receptor (MOR) in the lumbar spinal cord."}, "sham animals": {"tested_on": "sham animals", "assay": "Mechanical pain thresholds / analgesia in sham (healthy control) animals", "format": "in vivo, Long-Evans rats", "conditions": "0.1 mg/kg drug alone", "experimental": "as §1, §2"}}, "note": "At least one structure is not confirmed: it was looked up by name or label, or the drawing left a doubt.", "data": [{"smiles": "CN1CCc2cc(Cl)c(O)cc2[C@@H](c2ccccc2)C1", "note": "[SCH, SCH23390]", "values": [{"measurement": "analgesia over morphine alone", "setting": "SCI animals", "result": "increased analgesia over morphine alone"}, {"measurement": "analgesia compared to baseline", "setting": "sham animals", "result": "Neither PRAM nor SCH alone provided analgesia"}]}]}
